Laboratory results reported in patent US10350168B2, “Dermal delivery compositions comprising active agent-calcium phosphate particle complexes and methods of using the same” (Laboratory Skin Care, Inc., priority 2009, dated 2019).
For at least one compound, name, drawing or mass did not settle the structure.

Assay: Optimum pH for producing active agent-calcium phosphate complexes
Format: physicochemical
Conditions: Loading Solvent Water
Description: In the following tables, the specific solvent systems are examples of solvent systems that may be used.

SMILES: CN(C)[C@@H]1C(O)=C(C(N)=O)C(=O)[C@@]2(O)C(O)=C3C(=O)c4c(O)ccc(Cl)c4[C@@](C)(O)[C@H]3C[C@@H]12 [CTC, chlorotetracycline]
- Optimum pH: pH 7-8.5
